Values from PubChem BioAssay AID493246 (Drosophila RNAi Screening Center, 2011)
In all, the deposit lists about 21,000 reagents; this is a random part of those that have a named target and a result. Over the whole deposit, 429 (2%) are marked active. 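Values are raw and not normalised between plates; calls rest on per-plate z-scores that were not deposited.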 Reagents against one gene are numbered here. No sequences are given here. Not given: the amount of reagent, the time to read-out.

- Aim: 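Genome-wide search for dsRNAs that reduce cell number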 (primary screen)
- Cell system: Drosophila Kc and S2R+ cells
- Reagent: long dsRNA against Drosophila genes
- Read-out: 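Cell number per well after knock-down, printed as raw plate values; calls were based on per-plate z-scores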
- Scale: Kc cell number and S2R+ cell number: higher = more cells remaining
- Active means: 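Active when the per-plate z-score of cell number is 3 or more in the direction of fewer cells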

{"gene": "CG14668", "reagent": 1, "Kc cell number, rep 1": 1.49e6, "Kc cell number, rep 2": 1.60e6, "S2R+ cell number, rep 1": 1.30e6, "S2R+ cell number, rep 2": 1.48e6, "Outcome": "inactive"}
{"gene": "DIP-theta (Dpr-interacting protein theta)", "reagent": 1, "Kc cell number, rep 1": 1.34e6, "Kc cell number, rep 2": 1.27e6, "S2R+ cell number, rep 1": 9.67e5, "S2R+ cell number, rep 2": 1.13e6, "Outcome": "inactive"}
{"gene": "DIP-theta (Dpr-interacting protein theta)", "reagent": 2, "Kc cell number, rep 1": 1.53e6, "Kc cell number, rep 2": 1.54e6, "S2R+ cell number, rep 1": 1.22e6, "S2R+ cell number, rep 2": 1.38e6, "Outcome": "inactive"}
{"gene": "DIP-theta (Dpr-interacting protein theta)", "reagent": 3, "Kc cell number, rep 1": 1.51e6, "Kc cell number, rep 2": 1.43e6, "S2R+ cell number, rep 1": 1.15e6, "S2R+ cell number, rep 2": 1.30e6, "Outcome": "inactive"}
{"gene": "Ets65A (Ets at 65A)", "reagent": 1, "Kc cell number, rep 1": 1.45e6, "Kc cell number, rep 2": 1.33e6, "S2R+ cell number, rep 1": 1.07e6, "S2R+ cell number, rep 2": 1.21e6, "Outcome": "inactive"}
{"gene": "Ets65A (Ets at 65A)", "reagent": 2, "Kc cell number, rep 1": 1.30e6, "Kc cell number, rep 2": 1.40e6, "S2R+ cell number, rep 1": 1.32e6, "S2R+ cell number, rep 2": 1.05e6, "Outcome": "inactive"}
{"gene": "Ets65A (Ets at 65A)", "reagent": 3, "Kc cell number, rep 1": 1.58e6, "Kc cell number, rep 2": 1.53e6, "S2R+ cell number, rep 1": 1.45e6, "S2R+ cell number, rep 2": 1.20e6, "Outcome": "inactive"}
{"gene": "P5CDh1 (delta-1-Pyrroline-5-carboxylate dehydrogenase 1)", "reagent": 1, "Kc cell number, rep 1": 1.72e6, "Kc cell number, rep 2": 1.80e6, "S2R+ cell number, rep 1": 1.46e6, "S2R+ cell number, rep 2": 1.47e6, "Outcome": "inactive"}
{"gene": "CG8785", "reagent": 1, "Kc cell number, rep 1": 1.50e6, "Kc cell number, rep 2": 1.54e6, "S2R+ cell number, rep 1": 1.12e6, "S2R+ cell number, rep 2": 1.13e6, "Outcome": "inactive"}
{"gene": "CG3323", "reagent": 1, "Kc cell number, rep 1": 1.55e6, "Kc cell number, rep 2": 1.57e6, "S2R+ cell number, rep 1": 1.15e6, "S2R+ cell number, rep 2": 1.18e6, "Outcome": "inactive"}
{"gene": "CG13033", "reagent": 1, "Kc cell number, rep 1": 1.37e6, "Kc cell number, rep 2": 1.44e6, "S2R+ cell number, rep 1": 1.26e6, "S2R+ cell number, rep 2": 1.35e6, "Outcome": "inactive"}
{"gene": "GstD11 (Glutathione S transferase D11)", "reagent": 1, "Kc cell number, rep 1": 1.44e6, "Kc cell number, rep 2": 1.49e6, "S2R+ cell number, rep 1": 1.20e6, "S2R+ cell number, rep 2": 1.26e6, "Outcome": "inactive"}
{"gene": "CG14071", "reagent": 1, "Kc cell number, rep 1": 1.54e6, "Kc cell number, rep 2": 1.55e6, "S2R+ cell number, rep 1": 1.14e6, "S2R+ cell number, rep 2": 1.28e6, "Outcome": "inactive"}
{"gene": "Cat (Catalase)", "reagent": 1, "Kc cell number, rep 1": 1.71e6, "Kc cell number, rep 2": 1.86e6, "S2R+ cell number, rep 1": 1.36e6, "S2R+ cell number, rep 2": 1.49e6, "Outcome": "inactive"}
{"gene": "SKIP (Shal K[+] channel interacting protein)", "reagent": 1, "Kc cell number, rep 1": 1.19e6, "Kc cell number, rep 2": 1.18e6, "S2R+ cell number, rep 1": 1.06e6, "S2R+ cell number, rep 2": 1.16e6, "Outcome": "inactive"}
{"gene": "SKIP (Shal K[+] channel interacting protein)", "reagent": 2, "Kc cell number, rep 1": 1.23e6, "Kc cell number, rep 2": 1.20e6, "S2R+ cell number, rep 1": 1.06e6, "S2R+ cell number, rep 2": 1.17e6, "Outcome": "inactive"}
{"gene": "SKIP (Shal K[+] channel interacting protein)", "reagent": 3, "Kc cell number, rep 1": 1.28e6, "Kc cell number, rep 2": 1.43e6, "S2R+ cell number, rep 1": 1.02e6, "S2R+ cell number, rep 2": 1.10e6, "Outcome": "inactive"}
{"gene": "SKIP (Shal K[+] channel interacting protein)", "reagent": 4, "Kc cell number, rep 1": 1.39e6, "Kc cell number, rep 2": 1.38e6, "S2R+ cell number, rep 1": 1.17e6, "S2R+ cell number, rep 2": 1.29e6, "Outcome": "inactive"}
{"gene": "SKIP (Shal K[+] channel interacting protein)", "reagent": 5, "Kc cell number, rep 1": 1.39e6, "Kc cell number, rep 2": 1.38e6, "S2R+ cell number, rep 1": 1.01e6, "S2R+ cell number, rep 2": 1.16e6, "Outcome": "inactive"}
{"gene": "Ilp5 (Insulin-like peptide 5)", "reagent": 1, "Kc cell number, rep 1": 1.46e6, "Kc cell number, rep 2": 1.63e6, "S2R+ cell number, rep 1": 1.14e6, "S2R+ cell number, rep 2": 1.29e6, "Outcome": "inactive"}
{"gene": "TM9SF2 (Transmembrane 9 superfamily protein member 2)", "reagent": 1, "Kc cell number, rep 1": 1.08e6, "Kc cell number, rep 2": 1.24e6, "S2R+ cell number, rep 1": 9.79e5, "S2R+ cell number, rep 2": 9.29e5, "Outcome": "inactive"}

A few values from the entries so far.
GstD11 (Glutathione S transferase D11), S2R+ cell number, rep 2: 1.26e6
For “Kc cell number, rep 2”, SKIP (Shal K[+] channel interacting protein) #1 reads 1.18e6
